The supplement of paper PMC10849652
Some of the results follow.

Protein sequences, listed by entry. Tags and fused reporters are not part of them. Lines headed by an entry give the natural chain unless they say otherwise; changes in a name come on top.
UniProt P49840: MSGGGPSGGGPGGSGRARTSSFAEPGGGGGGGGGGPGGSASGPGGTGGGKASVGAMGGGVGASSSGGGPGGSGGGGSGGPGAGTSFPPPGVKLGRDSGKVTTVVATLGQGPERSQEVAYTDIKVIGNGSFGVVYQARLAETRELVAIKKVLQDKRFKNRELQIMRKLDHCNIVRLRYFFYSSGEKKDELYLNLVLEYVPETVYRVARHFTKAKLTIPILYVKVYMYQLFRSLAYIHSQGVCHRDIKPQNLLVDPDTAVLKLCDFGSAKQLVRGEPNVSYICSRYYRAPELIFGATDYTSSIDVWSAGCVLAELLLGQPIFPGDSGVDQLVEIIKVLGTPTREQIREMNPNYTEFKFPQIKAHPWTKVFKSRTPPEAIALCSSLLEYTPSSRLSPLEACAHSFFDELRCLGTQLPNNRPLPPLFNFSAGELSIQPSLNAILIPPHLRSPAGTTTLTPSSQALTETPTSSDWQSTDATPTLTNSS
UniProt Q00403, whole entry, looked up: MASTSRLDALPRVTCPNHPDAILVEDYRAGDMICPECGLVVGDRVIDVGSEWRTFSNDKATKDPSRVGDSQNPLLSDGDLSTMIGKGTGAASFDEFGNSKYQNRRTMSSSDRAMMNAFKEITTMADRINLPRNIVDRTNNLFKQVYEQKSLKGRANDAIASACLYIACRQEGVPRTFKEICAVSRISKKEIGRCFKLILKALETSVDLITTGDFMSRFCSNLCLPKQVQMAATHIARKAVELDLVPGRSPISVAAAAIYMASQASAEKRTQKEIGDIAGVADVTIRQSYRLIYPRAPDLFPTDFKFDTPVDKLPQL
UniProt Q92664: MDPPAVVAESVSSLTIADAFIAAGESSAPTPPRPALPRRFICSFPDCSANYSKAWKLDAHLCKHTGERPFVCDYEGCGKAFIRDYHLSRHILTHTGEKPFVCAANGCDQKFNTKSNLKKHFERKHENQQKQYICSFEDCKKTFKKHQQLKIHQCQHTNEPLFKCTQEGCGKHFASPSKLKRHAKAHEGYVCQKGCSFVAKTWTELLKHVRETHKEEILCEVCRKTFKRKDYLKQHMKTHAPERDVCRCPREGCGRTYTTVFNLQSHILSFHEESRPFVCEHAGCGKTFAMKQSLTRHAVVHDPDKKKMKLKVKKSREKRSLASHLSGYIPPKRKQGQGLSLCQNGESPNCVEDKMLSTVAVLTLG
UniProt P51610: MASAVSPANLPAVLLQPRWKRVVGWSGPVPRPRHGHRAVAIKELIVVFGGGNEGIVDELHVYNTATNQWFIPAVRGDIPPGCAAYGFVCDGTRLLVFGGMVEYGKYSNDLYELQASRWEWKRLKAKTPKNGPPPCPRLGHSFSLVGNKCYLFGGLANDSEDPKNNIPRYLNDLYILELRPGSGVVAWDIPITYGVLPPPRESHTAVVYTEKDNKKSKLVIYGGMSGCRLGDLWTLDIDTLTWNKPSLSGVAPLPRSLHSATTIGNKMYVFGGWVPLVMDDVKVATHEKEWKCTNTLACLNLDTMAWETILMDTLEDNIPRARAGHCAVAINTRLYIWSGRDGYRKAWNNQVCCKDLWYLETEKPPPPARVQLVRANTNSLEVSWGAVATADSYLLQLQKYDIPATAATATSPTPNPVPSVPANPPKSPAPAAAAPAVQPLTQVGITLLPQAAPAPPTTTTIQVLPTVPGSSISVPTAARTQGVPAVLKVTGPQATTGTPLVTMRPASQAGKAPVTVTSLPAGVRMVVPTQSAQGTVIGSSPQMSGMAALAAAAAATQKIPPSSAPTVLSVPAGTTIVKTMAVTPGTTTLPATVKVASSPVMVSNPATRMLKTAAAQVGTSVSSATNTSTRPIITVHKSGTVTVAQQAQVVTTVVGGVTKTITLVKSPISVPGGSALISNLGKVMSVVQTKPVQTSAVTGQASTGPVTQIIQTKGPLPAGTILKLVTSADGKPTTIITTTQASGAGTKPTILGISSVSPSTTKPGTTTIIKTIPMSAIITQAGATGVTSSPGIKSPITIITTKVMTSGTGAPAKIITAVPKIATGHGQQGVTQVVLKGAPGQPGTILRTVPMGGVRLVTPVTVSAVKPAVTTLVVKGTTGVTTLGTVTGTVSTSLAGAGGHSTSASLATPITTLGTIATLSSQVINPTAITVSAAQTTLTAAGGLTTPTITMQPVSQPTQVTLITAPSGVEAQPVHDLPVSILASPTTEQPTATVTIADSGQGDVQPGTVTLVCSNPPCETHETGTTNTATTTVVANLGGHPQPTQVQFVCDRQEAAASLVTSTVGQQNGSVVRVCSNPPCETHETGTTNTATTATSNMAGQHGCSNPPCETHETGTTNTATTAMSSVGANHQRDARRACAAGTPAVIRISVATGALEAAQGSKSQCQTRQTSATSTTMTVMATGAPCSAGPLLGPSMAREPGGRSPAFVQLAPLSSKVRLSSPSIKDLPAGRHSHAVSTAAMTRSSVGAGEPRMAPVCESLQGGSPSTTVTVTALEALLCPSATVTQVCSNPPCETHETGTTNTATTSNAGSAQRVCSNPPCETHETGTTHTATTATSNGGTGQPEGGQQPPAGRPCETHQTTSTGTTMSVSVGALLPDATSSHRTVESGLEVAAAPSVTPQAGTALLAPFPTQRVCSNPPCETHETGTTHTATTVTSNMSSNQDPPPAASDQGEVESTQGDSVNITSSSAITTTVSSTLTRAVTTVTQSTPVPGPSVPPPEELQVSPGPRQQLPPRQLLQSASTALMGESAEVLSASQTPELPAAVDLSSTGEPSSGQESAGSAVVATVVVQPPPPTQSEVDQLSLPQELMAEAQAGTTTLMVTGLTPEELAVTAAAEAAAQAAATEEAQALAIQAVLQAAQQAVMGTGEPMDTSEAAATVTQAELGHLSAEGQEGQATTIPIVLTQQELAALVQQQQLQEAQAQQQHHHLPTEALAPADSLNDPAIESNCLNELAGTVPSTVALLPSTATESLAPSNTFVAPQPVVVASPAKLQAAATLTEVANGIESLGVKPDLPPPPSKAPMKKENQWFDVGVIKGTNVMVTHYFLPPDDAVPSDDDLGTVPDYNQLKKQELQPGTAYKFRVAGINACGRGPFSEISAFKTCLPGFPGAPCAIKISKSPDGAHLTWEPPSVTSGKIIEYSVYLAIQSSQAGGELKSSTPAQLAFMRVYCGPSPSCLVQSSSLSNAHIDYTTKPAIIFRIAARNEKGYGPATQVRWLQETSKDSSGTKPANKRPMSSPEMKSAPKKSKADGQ
UniProt P36969, whole entry, looked up: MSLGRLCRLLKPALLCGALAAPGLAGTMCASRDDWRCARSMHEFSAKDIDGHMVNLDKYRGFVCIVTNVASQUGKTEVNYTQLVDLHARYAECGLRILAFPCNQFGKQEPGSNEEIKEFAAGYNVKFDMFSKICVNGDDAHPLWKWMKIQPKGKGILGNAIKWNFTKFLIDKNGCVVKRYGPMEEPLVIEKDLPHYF
UniProt Q9HAV7: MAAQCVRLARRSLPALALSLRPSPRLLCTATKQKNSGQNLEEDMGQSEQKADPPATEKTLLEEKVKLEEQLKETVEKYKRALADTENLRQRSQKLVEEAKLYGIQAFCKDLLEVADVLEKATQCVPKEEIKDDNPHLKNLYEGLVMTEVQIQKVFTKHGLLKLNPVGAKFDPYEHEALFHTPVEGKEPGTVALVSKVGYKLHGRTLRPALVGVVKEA
UniProt P32780: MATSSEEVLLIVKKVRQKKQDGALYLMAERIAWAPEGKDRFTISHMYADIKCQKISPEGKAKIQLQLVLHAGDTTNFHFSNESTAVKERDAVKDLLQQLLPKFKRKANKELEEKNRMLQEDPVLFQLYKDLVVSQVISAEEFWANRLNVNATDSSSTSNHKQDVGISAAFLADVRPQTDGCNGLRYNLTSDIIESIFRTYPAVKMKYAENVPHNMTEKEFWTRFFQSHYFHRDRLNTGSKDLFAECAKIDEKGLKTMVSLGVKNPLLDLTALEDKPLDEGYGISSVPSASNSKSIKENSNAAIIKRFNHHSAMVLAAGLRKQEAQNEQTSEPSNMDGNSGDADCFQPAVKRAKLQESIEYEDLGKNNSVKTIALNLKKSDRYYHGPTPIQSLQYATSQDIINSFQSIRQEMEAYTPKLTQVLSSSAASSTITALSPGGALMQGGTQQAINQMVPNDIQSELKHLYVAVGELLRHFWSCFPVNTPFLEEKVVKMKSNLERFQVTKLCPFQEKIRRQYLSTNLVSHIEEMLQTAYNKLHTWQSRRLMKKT
UniProt P09105: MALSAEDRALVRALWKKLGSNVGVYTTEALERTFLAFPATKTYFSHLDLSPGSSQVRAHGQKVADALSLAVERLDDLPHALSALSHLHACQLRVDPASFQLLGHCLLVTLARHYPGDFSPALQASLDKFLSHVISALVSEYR
UniProt Q8IYD1, whole entry, looked up: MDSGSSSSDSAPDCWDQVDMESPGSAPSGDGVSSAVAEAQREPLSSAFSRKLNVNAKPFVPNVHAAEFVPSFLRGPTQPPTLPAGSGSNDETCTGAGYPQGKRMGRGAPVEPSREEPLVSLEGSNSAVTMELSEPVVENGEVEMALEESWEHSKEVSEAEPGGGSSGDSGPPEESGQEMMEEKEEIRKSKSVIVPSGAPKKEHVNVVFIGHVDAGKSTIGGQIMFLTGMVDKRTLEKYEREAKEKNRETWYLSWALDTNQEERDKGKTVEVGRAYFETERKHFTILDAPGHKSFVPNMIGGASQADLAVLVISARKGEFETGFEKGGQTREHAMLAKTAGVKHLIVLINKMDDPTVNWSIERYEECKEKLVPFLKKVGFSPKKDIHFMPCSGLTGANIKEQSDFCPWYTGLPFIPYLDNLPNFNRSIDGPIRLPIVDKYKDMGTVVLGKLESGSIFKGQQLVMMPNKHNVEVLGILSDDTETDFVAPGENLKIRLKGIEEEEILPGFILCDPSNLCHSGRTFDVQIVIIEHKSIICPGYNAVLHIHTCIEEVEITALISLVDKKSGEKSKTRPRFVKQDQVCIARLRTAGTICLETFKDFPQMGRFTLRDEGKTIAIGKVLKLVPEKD
UniProt Q9BXW7: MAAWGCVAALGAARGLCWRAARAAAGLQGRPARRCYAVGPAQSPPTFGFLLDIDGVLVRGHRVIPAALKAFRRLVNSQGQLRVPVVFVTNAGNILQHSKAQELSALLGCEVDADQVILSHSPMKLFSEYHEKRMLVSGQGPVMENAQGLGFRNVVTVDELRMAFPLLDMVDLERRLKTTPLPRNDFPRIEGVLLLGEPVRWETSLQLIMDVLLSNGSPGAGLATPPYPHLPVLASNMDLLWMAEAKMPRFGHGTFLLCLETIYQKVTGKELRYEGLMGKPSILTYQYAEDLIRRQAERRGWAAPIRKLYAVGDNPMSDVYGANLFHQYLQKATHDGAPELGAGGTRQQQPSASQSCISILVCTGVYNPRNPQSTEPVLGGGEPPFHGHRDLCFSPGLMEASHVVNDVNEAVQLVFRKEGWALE
UniProt O15379: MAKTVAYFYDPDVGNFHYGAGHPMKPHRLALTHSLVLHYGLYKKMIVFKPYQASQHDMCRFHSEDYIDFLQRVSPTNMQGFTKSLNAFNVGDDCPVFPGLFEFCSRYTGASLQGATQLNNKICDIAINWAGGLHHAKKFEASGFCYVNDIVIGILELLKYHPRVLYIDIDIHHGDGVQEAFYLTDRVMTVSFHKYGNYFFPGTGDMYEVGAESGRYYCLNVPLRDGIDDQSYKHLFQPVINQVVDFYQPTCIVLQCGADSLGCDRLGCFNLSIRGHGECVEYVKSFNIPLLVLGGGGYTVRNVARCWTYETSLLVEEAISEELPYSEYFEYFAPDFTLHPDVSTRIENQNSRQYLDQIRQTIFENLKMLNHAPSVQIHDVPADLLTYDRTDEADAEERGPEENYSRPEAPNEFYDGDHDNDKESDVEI
UniProt P16403, whole entry, looked up: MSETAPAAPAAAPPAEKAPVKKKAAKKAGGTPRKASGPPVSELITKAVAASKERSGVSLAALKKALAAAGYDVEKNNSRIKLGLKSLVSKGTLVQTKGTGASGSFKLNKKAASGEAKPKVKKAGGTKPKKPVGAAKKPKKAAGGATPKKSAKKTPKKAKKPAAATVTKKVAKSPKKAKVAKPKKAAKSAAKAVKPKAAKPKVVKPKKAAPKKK
UniProt P12081: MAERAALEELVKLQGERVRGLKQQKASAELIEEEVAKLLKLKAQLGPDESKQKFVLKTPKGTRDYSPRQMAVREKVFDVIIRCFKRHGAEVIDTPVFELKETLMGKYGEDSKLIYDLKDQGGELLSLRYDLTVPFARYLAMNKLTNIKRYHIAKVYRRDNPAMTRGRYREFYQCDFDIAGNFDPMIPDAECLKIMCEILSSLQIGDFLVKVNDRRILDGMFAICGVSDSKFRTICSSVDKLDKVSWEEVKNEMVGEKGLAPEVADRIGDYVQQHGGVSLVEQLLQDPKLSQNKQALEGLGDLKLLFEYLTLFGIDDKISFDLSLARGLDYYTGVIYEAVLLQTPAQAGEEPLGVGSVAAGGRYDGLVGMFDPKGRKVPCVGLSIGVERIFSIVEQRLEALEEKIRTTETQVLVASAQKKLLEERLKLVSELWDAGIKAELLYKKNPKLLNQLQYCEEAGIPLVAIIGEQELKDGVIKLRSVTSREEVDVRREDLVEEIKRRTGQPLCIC

Assays:
Test in all cases: log2 fold change, soluble protein after heating vs DMSO (PISA); higher = thermal stabilisation; K562 lysate, 10 uM; active = over 0.2 and 3.5 SD of the protein, either way, in both replicates (recomputed)
ibrutinib = compound: C=CC(=O)N1CCC[C@@H](n2nc(-c3ccc(Oc4ccccc4)cc3)c3c(N)ncnc32)C1 [ibrutinib]
Summary of the method: (§1)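 To prepare the extract, K562 pellets were dounce-homogenised in PBS pH 7.4 with 1 mM MgCl2, giving crude material at 1 mg/mL protein. This was treated with 10 μM compound for 30 min, then heated in aliquots for 3 min over 48°C-58°C before pooling and addition of NP-40 to 0.5% at 4°C. Centrifugation at 21,000xg for 90 min left soluble protein in the supernatant, which TMTpro 16plex LC-MS/MS quantified with equalised channel sums. Results are log-two fold changes in thermal stability compared with solvent controls, from duplicates.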

[1] = compound: CC(=O)c1cnc2ccc(-c3cc(Cl)c(O)c(Cl)c3)nc2c1N[C@H]1CC[C@H](CN(C)C)CC1
Summary of the method: as §1

ralimetinib = compound: CC(C)(C)Cn1c(N)nc2ccc(-c3[nH]c(C(C)(C)C)nc3-c3ccc(F)cc3)nc21 [ralimetinib]
Summary of the method: as §1

[2] = compound: CC(C)(O)CC(=O)NCCn1ccc2ncnc(Nc3ccc(Oc4cccc(C(F)(F)F)c4)c(Cl)c3)c21
Summary of the method: as §1

[3] = compound: CC(C)C1=C2N=C(C=C(N2N=C1)NCC3=CC=CC=C3)NCCCCCCN
Summary of the method: as §1

[4] = compound: CC1=C(C(CC(=O)N1)C2=CC=C(C=C2)C(F)(F)F)C(=O)NC3=C(C=C4C(=C3)C=NN4)F
Summary of the method: as §1

[5] = compound: CC1=C(C2=C(C=C1)C(=O)C3=CC=CC=C3N2CCCN)C
Summary of the method: as §1

[6] = compound: CC1=C(C=C(C=C1)NC(=O)C2=CC(=CC=C2)C(C)(C)C#N)NC3=CC4=C(C=C3)N=CN(C4=O)C
Summary of the method: as §1

[7] = compound: CC1=C(C=C(C=C1)NC(=O)C2=CC(=CC=C2)N(C)C)NC(=O)C3=CC=C(C=C3)O
Summary of the method: as §1

[8] = compound: CC1=CC=C(C=C1)SC2=C3C=C(SC3=CN=C2)C(=O)N
Summary of the method: as §1

vemurafenib = compound: CCCS(=O)(=O)Nc1ccc(F)c(C(=O)c2c[nH]c3ncc(-c4ccc(Cl)cc4)cc23)c1F [vemurafenib]
Summary of the method: as §1

[9] = compound: CCCS(=O)(=O)Nc1ccc(F)c(C(=O)c2c[nH]c3ncc(Cl)cc23)c1F
Summary of the method: as §1

barasertib = compound: CCN(CCCOc1ccc2c(Nc3cc(CC(=O)Nc4cccc(F)c4)[nH]n3)ncnc2c1)CCOP(=O)(O)O [barasertib]
Summary of the method: as §1

[10] = compound: CC[C@@H]1C(=O)N(C)c2cnc(Nc3ccc(C(=O)NC4CCN(C)CC4)cc3OC)nc2N1C1CCCC1
Summary of the method: as §1

volasertib = compound: CC[C@@H]1C(=O)N(C)c2cnc(Nc3ccc(C(=O)N[C@H]4CC[C@H](N5CCN(CC6CC6)CC5)CC4)cc3OC)nc2N1C(C)C [volasertib]
Summary of the method: as §1

[11] = compound: CCn1c(C(=O)N(C2CC2)C2CC2)cc2c3c(ncn3C)c(Nc3cc(C)n(C)n3)nc21
Summary of the method: as §1

[12] = compound: CCn1cc(-c2ccnc3[nH]c(-c4cccc(CN(C)C)c4)cc23)c(-c2ccc(NC(=O)N(C)C)cc2)n1
Summary of the method: as §1

[13] = compound: CN1CCC(CNc2ccc3ncc(-c4cccc(OC(F)(F)F)c4)n3n2)CC1
Summary of the method: as §1

saracatinib = compound: CN1CCN(CCOc2cc(OC3CCOCC3)c3c(Nc4c(Cl)ccc5c4OCO5)ncnc3c2)CC1 [saracatinib]
Summary of the method: as §1

sotrastaurin = compound: CN1CCN(c2nc(C3=C(c4c[nH]c5ccccc45)C(=O)NC3=O)c3ccccc3n2)CC1 [sotrastaurin]
Summary of the method: as §1

| Target | log2 fold change (ibrutinib) | log2 fold change [1] | log2 fold change (ralimetinib) | log2 fold change [2] | log2 fold change [3] | log2 fold change [4] | log2 fold change [5] | log2 fold change [6] | log2 fold change [7] | log2 fold change [8] | log2 fold change (vemurafenib) | log2 fold change [9] | log2 fold change (barasertib) | log2 fold change [10] | log2 fold change (volasertib) | log2 fold change [11] | log2 fold change [12] | log2 fold change [13] | log2 fold change (saracatinib) | log2 fold change (sotrastaurin) |
| --- | --- | --- | --- | --- | --- | --- | --- | --- | --- | --- | --- | --- | --- | --- | --- | --- | --- | --- | --- | --- |
| GSK3A (UniProt P49840) | inactive: -0.01 | inactive: 0.146 | inactive: 0.022 | inactive: -0.001 | inactive: -0.045 | inactive: -0.017 | inactive: 0.01 | inactive: -0.109 | inactive: -0.007 | inactive: 0.207 | inactive: -0.013 | inactive: 0.006 | inactive: -0.04 | inactive: -0.015 | inactive: -0.01 | inactive: 0.026 | inactive: -0.133 | inactive: 0.154 | inactive: 0.01 | active: 0.535 |
| GTF2B (UniProt Q00403) | inactive: 0.017 | inactive: 0.023 | inactive: 0.001 | inactive: -0.001 | inactive: 0.046 | inactive: 0.025 | inactive: 0.043 | inactive: 0.021 | inactive: -0.014 | inactive: -0.016 | inactive: 0.059 | inactive: 0.013 | inactive: -0.017 | inactive: 0.019 | inactive: -0.026 | inactive: 0.021 | inactive: -0.046 | inactive: -0.003 | inactive: -0.029 | inactive: -0.008 |
| GTF3A (UniProt Q92664) | inactive: 0.013 | inactive: 0.012 | inactive: -0.007 | inactive: 0.06 | inactive: -0.044 | inactive: -0.023 | inactive: -0.017 | inactive: 0.117 | inactive: -0.037 | inactive: 0.038 | inactive: -0.064 | inactive: -0.028 | inactive: 0.009 | inactive: 0.056 | inactive: -0.019 | inactive: -0.143 | inactive: 0.097 | inactive: -0.075 | inactive: 0.064 | inactive: -0.18 |
| HCFC1 isoform 4 (UniProt P51610) | inactive: 0.009 | inactive: -0.005 | inactive: 0.006 | inactive: -0.015 | inactive: 0.007 | inactive: 0.001 | inactive: -0.007 | inactive: 0.008 | inactive: 0.006 | inactive: -0.021 | inactive: -0.014 | inactive: 0.003 | inactive: -0.018 | inactive: 0.04 | inactive: 0.017 | inactive: -0.029 | inactive: -0.045 | inactive: 0.055 | inactive: 0.004 | inactive: 0.014 |
| GPX4 (UniProt P36969) | inactive: -0.013 | inactive: 0.01 | inactive: 0.011 | inactive: 0.018 | inactive: -0.004 | inactive: 0.006 | inactive: -0.002 | inactive: 0.014 | inactive: 0.003 | inactive: 0.039 | inactive: -0.003 | inactive: 0.025 | inactive: -0.002 | inactive: -0.068 | inactive: -0.038 | inactive: 0.013 | inactive: 0.027 | inactive: -0.079 | inactive: 0.02 | inactive: 0.012 |
| HCCS (UniProt P53701) | inactive: 0.005 | inactive: -0.021 | inactive: 0.024 | inactive: -0.057 | inactive: 0.001 | inactive: 0.004 | inactive: 0.004 | inactive: -0.008 | inactive: 0.041 | inactive: 0.006 | inactive: 0.054 | inactive: 0.036 | inactive: -0.014 | inactive: 0.02 | inactive: 0.013 | inactive: 0.01 | inactive: -0.027 | inactive: 0.002 | inactive: 0.018 | inactive: -0.023 |
| GRPEL1 (UniProt Q9HAV7) | inactive: 0.049 | inactive: -0.006 | inactive: -0.016 | inactive: -0.011 | inactive: -0.004 | inactive: -0.018 | inactive: -0.005 | inactive: -0.01 | inactive: -0.015 | inactive: -0.004 | inactive: -0.004 | inactive: -0.036 | inactive: 0.043 | inactive: 0.015 | inactive: 0.012 | inactive: -0.02 | inactive: -0.051 | inactive: 0.019 | inactive: -0.026 | inactive: -0.021 |
| GTF2H1 (UniProt P32780) | inactive: 0.023 | inactive: 0.023 | inactive: 0.026 | inactive: 0.003 | inactive: -0.005 | inactive: 0.036 | inactive: -0.022 | inactive: 0.001 | inactive: 0.054 | inactive: 0.015 | inactive: 0.013 | inactive: 0.014 | inactive: 0.014 | inactive: -0.021 | inactive: -0.028 | inactive: -0.028 | inactive: -0.042 | inactive: -0.075 | inactive: 0.018 | inactive: -0.012 |
| HBQ1 (UniProt P09105) | inactive: 0.046 | inactive: -0.013 | inactive: 0.006 | inactive: -0.036 | inactive: -0.052 | inactive: -0.073 | inactive: -0.009 | inactive: 0.033 | inactive: 0.01 | inactive: 0.029 | inactive: 0.076 | inactive: 0.007 | inactive: 0.077 | inactive: -0.039 | inactive: 0.057 | inactive: -0.006 | inactive: -0.116 | inactive: -0.011 | inactive: 0.019 | inactive: -0.125 |
| GSPT2 (UniProt Q8IYD1) | inactive: 0.002 | inactive: -0.001 | inactive: -0.007 | inactive: 0 | inactive: -0.047 | inactive: 0.029 | inactive: 0.021 | inactive: 0.014 | inactive: -0.052 | inactive: 0.054 | inactive: -0.004 | inactive: 0.031 | inactive: 0.066 | inactive: -0.119 | inactive: -0.056 | inactive: -0.023 | inactive: -0.036 | inactive: 0.109 | inactive: -0.004 | inactive: 0.011 |
| HDHD5 (UniProt Q9BXW7) | inactive: -0.027 | inactive: 0.018 | inactive: 0 | inactive: 0.073 | inactive: -0.042 | inactive: 0.011 | inactive: -0.023 | inactive: -0.007 | inactive: 0.024 | inactive: -0.001 | inactive: -0.033 | inactive: 0.043 | inactive: -0.137 | inactive: -0.076 | inactive: -0.02 | inactive: 0.01 | inactive: 0 | inactive: 0.011 | inactive: -0.06 | inactive: 0.05 |
| HDAC3 (UniProt O15379) | inactive: -0.004 | inactive: 0 | inactive: 0.043 | inactive: 0.018 | inactive: -0.029 | inactive: -0.03 | inactive: 0 | inactive: -0.003 | inactive: -0.082 | inactive: -0.007 | inactive: 0.035 | inactive: 0.026 | inactive: -0.038 | inactive: -0.023 | inactive: -0.003 | inactive: 0.001 | inactive: 0.023 | inactive: 0.052 | inactive: -0.04 | inactive: -0.006 |
| H1-2 (UniProt P16403) | inactive: 0.034 | inactive: 0.031 | inactive: -0.026 | inactive: -0.011 | inactive: -0.014 | inactive: -0.026 | inactive: 0.06 | inactive: -0.008 | inactive: 0.004 | inactive: -0.017 | inactive: 0.011 | inactive: -0.024 | inactive: -0.004 | inactive: -0.001 | inactive: -0.008 | inactive: -0.033 | inactive: -0.02 | inactive: 0.035 | inactive: -0.003 | inactive: 0.016 |
| HARS (UniProt P12081) | inactive: -0.049 | inactive: 0.022 | inactive: -0.002 | inactive: 0.015 | inactive: -0.039 | inactive: -0.015 | inactive: 0.008 | inactive: 0.005 | inactive: 0.008 | inactive: 0.005 | inactive: -0.024 | inactive: -0.02 | inactive: -0.031 | inactive: -0.049 | inactive: -0.006 | inactive: 0.012 | inactive: 0.023 | inactive: -0.01 | inactive: -0.021 | inactive: 0.009 |
| H4C1 (UniProt P62805) | inactive: 0.055 | inactive: -0.008 | inactive: -0.078 | inactive: -0.037 | inactive: -0.046 | inactive: 0.075 | inactive: -0.082 | inactive: 0.011 | inactive: -0.022 | inactive: 0.008 | inactive: -0.013 | inactive: 0.087 | inactive: 0.079 | inactive: -0.055 | inactive: 0.027 | inactive: 0.079 | inactive: 0.268 | inactive: -0.01 | inactive: -0.094 | inactive: -0.059 |
| HEATR1 (UniProt Q9H583) | inactive: -0.021 | inactive: 0.009 | inactive: 0.026 | inactive: 0.021 | inactive: -0.034 | inactive: 0.011 | inactive: -0.032 | inactive: 0.009 | inactive: 0.037 | inactive: -0.006 | inactive: 0.071 | inactive: 0.023 | inactive: 0.052 | inactive: -0.063 | inactive: -0.023 | inactive: -0.01 | inactive: 0.068 | inactive: -0.184 | inactive: -0.007 | inactive: 0.026 |

Full records from above. Values in the order: log2 fold change (ibrutinib) | log2 fold change [1] | log2 fold change (ralimetinib) | log2 fold change [2] | log2 fold change [3] | log2 fold change [4] | log2 fold change [5] | log2 fold change [6] | log2 fold change [7] | log2 fold change [8] | log2 fold change (vemurafenib) | log2 fold change [9] | log2 fold change (barasertib) | log2 fold change [10] | log2 fold change (volasertib) | log2 fold change [11] | log2 fold change [12] | log2 fold change [13] | log2 fold change (saracatinib) | log2 fold change (sotrastaurin)
HDAC3 (UniProt O15379) is listed with inactive: -0.004 | inactive: 0 | inactive: 0.043 | inactive: 0.018 | inactive: -0.029 | inactive: -0.03 | inactive: 0 | inactive: -0.003 | inactive: -0.082 | inactive: -0.007 | inactive: 0.035 | inactive: 0.026 | inactive: -0.038 | inactive: -0.023 | inactive: -0.003 | inactive: 0.001 | inactive: 0.023 | inactive: 0.052 | inactive: -0.04 | inactive: -0.006
GTF2B (UniProt Q00403) is listed with inactive: 0.017 | inactive: 0.023 | inactive: 0.001 | inactive: -0.001 | inactive: 0.046 | inactive: 0.025 | inactive: 0.043 | inactive: 0.021 | inactive: -0.014 | inactive: -0.016 | inactive: 0.059 | inactive: 0.013 | inactive: -0.017 | inactive: 0.019 | inactive: -0.026 | inactive: 0.021 | inactive: -0.046 | inactive: -0.003 | inactive: -0.029 | inactive: -0.008
